{"sequences": {"note": "Protein sequences, listed by entry. Tags and fused reporters are not part of them.", "UniProt Q0JBA9, entry or part of it": "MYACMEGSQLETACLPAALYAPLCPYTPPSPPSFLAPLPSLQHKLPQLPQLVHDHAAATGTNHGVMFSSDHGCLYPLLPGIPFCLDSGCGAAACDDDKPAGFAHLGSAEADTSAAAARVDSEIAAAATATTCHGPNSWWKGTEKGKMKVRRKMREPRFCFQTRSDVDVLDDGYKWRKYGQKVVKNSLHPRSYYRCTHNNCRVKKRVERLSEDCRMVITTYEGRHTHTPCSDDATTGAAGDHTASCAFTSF"}, "source": "paper PMC7819943", "about": "“Rice protein-binding microarrays: a tool to detect cis-acting elements near promoter regions in rice”", "note": "The list shows a part of the results."}
{"target": "OsWRKY34 (Oryza sativa, UniProt Q0JBA9 1-250)", "experiment": "protein-binding microarray (RPBM); PBS, 2% BSA, 51.3 ng/ul salmon testes DNA, 50 uM zinc acetate, 200 nM TF, 25 C, 1 h; high values mean tight binding", "conditions": "protein: recombinant; tags: N-terminal polyhistidine and DsRed monomer fusion (pET32a); label: CyDye5-dUTP incorporated in the synthesized complementary strand; 3' TTTTT single-stranded linker to array surface; dsDNA, one strand shown", "outline": "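Transcription factors were made in E. coli BL21-CodonPlus as N-terminal fusions to a polyhistidine tag and DsRed, then purified on Ni–NTA. After primer extension with Cy5-dUTP and blocking with 2% BSA, a custom Agilent array was exposed for 1 h at 25 °C to 200 nM protein in PBS, 2% BSA, salmon testes DNA and 50 µM zinc acetate. Washed arrays were scanned on an Axon 4000B, and the binding signal is per-feature fluorescence intensity in arbitrary units.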"}
{"sequence": "CGTTAGTTAATAGAAACATTTGACCGGCTGATTTTTTCCGCGGAGTCACCTAGTGCAG", "binding signal": "8110 fluorescence intensity (a.u.)"}
{"sequence": "CTCGTCGCCGTGCTACTCTCGCTTTCTCTCTCTCTCTCTCCGGAGTCACCTAGTGCAG", "binding signal": "12400 fluorescence intensity (a.u.)"}
{"sequence": "CATCCCGATGCATATAGCTCTTCTCGTACCTGCAAAACCACGGAGTCACCTAGTGCAG", "binding signal": "11900 fluorescence intensity (a.u.)"}
{"sequence": "ACCATTCACGTACCCCGCATCGGCCGCACCTCCCCTCGCCCGGAGTCACCTAGTGCAG", "binding signal": "11200 fluorescence intensity (a.u.)"}
{"sequence": "AGGCTGCAGTGGATTGATGGATGGATGGGGATTCATTTGTCGGAGTCACCTAGTGCAG", "binding signal": "8030 fluorescence intensity (a.u.)"}
{"sequence": "TTGACCTTTTCTGTCTCTGTCACTGCAGTGCAATGCGTTTCGGAGTCACCTAGTGCAG", "binding signal": "9110 fluorescence intensity (a.u.)"}
{"sequence": "ATTAATTTTCTCGCTGGTAATTAACTTGCATGTGCACGTCCGGAGTCACCTAGTGCAG", "binding signal": "9960 fluorescence intensity (a.u.)"}
{"sequence": "CCTCTCGCCACGCGCCTCCGCACGAACCCTAGTCTCCTCTCGGAGTCACCTAGTGCAG", "binding signal": "8300 fluorescence intensity (a.u.)"}
{"sequence": "TCCTTCCGCTTCTCAGTCCATCCGTCGCCGCCGCCCGGCCCGGAGTCACCTAGTGCAG", "binding signal": "8780 fluorescence intensity (a.u.)"}
{"sequence": "ATGGAGTTTTGGATTAACACTCTTCTTCCATGGTCTTTTCCGGAGTCACCTAGTGCAG", "binding signal": "9150 fluorescence intensity (a.u.)"}
{"sequence": "ACTTCACAGAGAACACTGTAGTTCGATTTTTTTTTACCACCGGAGTCACCTAGTGCAG", "binding signal": "8630 fluorescence intensity (a.u.)"}
{"sequence": "GTCCAATCAAACGGCCATTCCTGTATTTTTCCTATGTTTTCGGAGTCACCTAGTGCAG", "binding signal": "11100 fluorescence intensity (a.u.)"}
{"sequence": "GGTACGTTATTCGTGTTTGAGTCGGTTTTTAAGTTCATTCCGGAGTCACCTAGTGCAG", "binding signal": "8180 fluorescence intensity (a.u.)"}
{"sequence": "GCAACTCATGCATCATATCATGCCTCTCTCAACCTATTCACGGAGTCACCTAGTGCAG", "binding signal": "9450 fluorescence intensity (a.u.)"}
{"sequence": "ATTCTTTAGTTAAACTTTTTTTTTTTGCTTTTTCATGAATCGGAGTCACCTAGTGCAG", "binding signal": "10300 fluorescence intensity (a.u.)"}
{"sequence": "GAAGCTCTAAGATGGGCCGTTGACCAGATGGGGAAAAGTCCGGAGTCACCTAGTGCAG", "binding signal": "10400 fluorescence intensity (a.u.)"}
{"sequence": "TGGTGCTCGTCCGCTCGAATCACATCCGTTTTTCCCAATCCGGAGTCACCTAGTGCAG", "binding signal": "8380 fluorescence intensity (a.u.)"}
{"sequence": "GGGATTTTTTCTAACTCTCAGTTGATAATTTTGTCTTTTTCGGAGTCACCTAGTGCAG", "binding signal": "8040 fluorescence intensity (a.u.)"}
{"sequence": "GATTTCACGGGCCTCCTTCTCTTGTATATCCACAAACCCTCGGAGTCACCTAGTGCAG", "binding signal": "9820 fluorescence intensity (a.u.)"}
{"sequence": "TGACTGCCATTTTTGAAAATCGATCGGGGATGTTGTAAGTCGGAGTCACCTAGTGCAG", "binding signal": "8590 fluorescence intensity (a.u.)"}
{"sequence": "TCTTCCACAGTTCCACTCCTCCCTCACTCTCTCCCACAGTCGGAGTCACCTAGTGCAG", "binding signal": "8660 fluorescence intensity (a.u.)"}
{"sequence": "TAGTATGCATGCTTTTTTTTATTCTTTCTCACTACACACTCGGAGTCACCTAGTGCAG", "binding signal": "8730 fluorescence intensity (a.u.)"}
{"sequence": "GGGCGGTGGAGGCGGAGCTCCCCTGGCGGTGGGCGGTGGGCGGAGTCACCTAGTGCAG", "binding signal": "10500 fluorescence intensity (a.u.)"}
{"sequence": "CCAACTAAAGCCATACACACCACTGCTATCACTATACAACCGGAGTCACCTAGTGCAG", "binding signal": "8750 fluorescence intensity (a.u.)"}
{"sequence": "GGGGAGGGTTTCGTGCTCCTAGCCTCACCTTCCTCTCGACCGGAGTCACCTAGTGCAG", "binding signal": "10000 fluorescence intensity (a.u.)"}
{"sequence": "TATTAATACCTCATCTTGTCGTCTCGTATCATCTCATCTCCGGAGTCACCTAGTGCAG", "binding signal": "12200 fluorescence intensity (a.u.)"}
{"sequence": "GCCGCCGCCACCGCCACCGCCACCGCCCACCTCCGCCGCCCGGAGTCACCTAGTGCAG", "binding signal": "9520 fluorescence intensity (a.u.)"}
{"sequence": "TTCGCTTTTTTGCTCTTCAGTTCAATCATGTTCCTTAGTTCGGAGTCACCTAGTGCAG", "binding signal": "8070 fluorescence intensity (a.u.)"}
{"sequence": "ACAATCAGTGGGGAGGGAAGGGCCCCTTATTTATTCGCATCGGAGTCACCTAGTGCAG", "binding signal": "8200 fluorescence intensity (a.u.)"}
{"sequence": "ACCCACCATCAATCAGCTCTCACACAAGCCCAATACGGCACGGAGTCACCTAGTGCAG", "binding signal": "8410 fluorescence intensity (a.u.)"}
{"sequence": "GTTTTGTGATAATTTGGTATTTTTTGTGAAATTTACTTTACGGAGTCACCTAGTGCAG", "binding signal": "9010 fluorescence intensity (a.u.)"}
{"sequence": "TTCCCACATTTTCCTTGGTTGGCACTTAGCACCATATGTTCGGAGTCACCTAGTGCAG", "binding signal": "8350 fluorescence intensity (a.u.)"}
{"sequence": "CTTTACTTACTTTGGTGCACATGCATGCAGATTCTGTAAACGGAGTCACCTAGTGCAG", "binding signal": "8230 fluorescence intensity (a.u.)"}
{"sequence": "TGCGATTACACCCTTGCTTAAGCCTTGTATTACCTGTCAGCGGAGTCACCTAGTGCAG", "binding signal": "12300 fluorescence intensity (a.u.)"}
{"sequence": "CTGTTTGCAATTTGCAATGAGGTGTCAACTACCTCATTCTCGGAGTCACCTAGTGCAG", "binding signal": "8650 fluorescence intensity (a.u.)"}
{"sequence": "TTCTTTCCAAATCCCCATCGCTTTCTTCTCCTCCTTTTTTCGGAGTCACCTAGTGCAG", "binding signal": "8090 fluorescence intensity (a.u.)"}
{"sequence": "TGGCGGGCTTGGTGGTGGAGGTGGCAAGGAAGGAGGATTTCGGAGTCACCTAGTGCAG", "binding signal": "8470 fluorescence intensity (a.u.)"}
{"sequence": "AACGTTTGATTTTTCATTTCTCTTATTACTGACTTATTTACGGAGTCACCTAGTGCAG", "binding signal": "9850 fluorescence intensity (a.u.)"}
{"sequence": "CAGTCTGTTAATACTTGTTGTTTCTTATGTTATAGCGACACGGAGTCACCTAGTGCAG", "binding signal": "11100 fluorescence intensity (a.u.)"}
{"sequence": "AATATATCACAAGCGACTATGATGATCAGTTTGTCCAATCCGGAGTCACCTAGTGCAG", "binding signal": "8030 fluorescence intensity (a.u.)"}
{"sequence": "CATTTTTTCTGTATTCCATGCTACAATGAGTCCCGTGGTGCGGAGTCACCTAGTGCAG", "binding signal": "9640 fluorescence intensity (a.u.)"}
{"sequence": "GGGATTGGGTAACTTTTCAGGGGCACACAAGGAATTTACTCGGAGTCACCTAGTGCAG", "binding signal": "8240 fluorescence intensity (a.u.)"}
